The list shows a part of the results. This data set is noisy: repeats of one test often differ as much as different tests do.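 Human kidney-derived cells stably carry a construct in which eight TEAD-binding elements drive luciferase, measured by luminescence in a drug-repurposing library screen. A hit is any compound whose signal exceeds the plate mean by more than five robust Z scores.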
Tested on: HEK293A TEAD-LUC reporter
Assay: TEAD-luciferase reporter activity (YAP activation), robust Z score vs plate; higher = stronger YAP/TEAD activation
Details: 24 h

## CCOC(=O)c1ccccc1OC(N)=O
Compound concentration: 200 nM
  TEAD-luciferase reporter activity: inactive: -0.417
Compound concentration: 2 uM
  TEAD-luciferase reporter activity: inactive: -1.16
Compound concentration: 10 uM
  TEAD-luciferase reporter activity: inactive: 0.898

## CCN(CC)CC(=O)Nc1ccc(OC(=O)Cc2c(C)n(C(=O)c3ccc(Cl)cc3)c3ccc(OC)cc23)cc1
Compound concentration: 200 nM
  TEAD-luciferase reporter activity: inactive: 0.627
Compound concentration: 2 uM
  TEAD-luciferase reporter activity: inactive: -1.25
Compound concentration: 10 uM
  TEAD-luciferase reporter activity: inactive: -0.367

## O=C(NCc1ccoc1)c1cnc(Nc2cccc(Cl)c2)nc1C(F)(F)F
Compound concentration: 200 nM
  TEAD-luciferase reporter activity: inactive: -2.07
Compound concentration: 2 uM
  TEAD-luciferase reporter activity: inactive: -0.82
Compound concentration: 10 uM
  TEAD-luciferase reporter activity: inactive: 3.96

## O=C1C(Cc2ccc(O)cc2)N2C(=O)CCN(C(=O)NCc3ccccc3)C2CN1Cc1ccc2ccccc2c1 (stereo not drawn)
Compound concentration: 200 nM
  TEAD-luciferase reporter activity: inactive: 3.28
Compound concentration: 2 uM
  TEAD-luciferase reporter activity: inactive: -1.28
Compound concentration: 10 uM
  TEAD-luciferase reporter activity: inactive: 0.671

## CC(c1ccc(C#N)cc1)N1CCN(c2ccc(C#N)cc2Cl)C(c2ccc(Cl)cc2)C1 (stereo not drawn) [Giminabant]
Compound concentration: 200 nM
  TEAD-luciferase reporter activity: inactive: -0.511
Compound concentration: 2 uM
  TEAD-luciferase reporter activity: inactive: 0.146
Compound concentration: 10 uM
  TEAD-luciferase reporter activity: inactive: -0.656

## CN1C(=O)CC[C@H]1c1cccnc1 [(-)-Cotinine]
Compound concentration: 200 nM
  TEAD-luciferase reporter activity: inactive: -1.23
Compound concentration: 10 uM
  TEAD-luciferase reporter activity: inactive: 4.06

## O=C(C1CCCN(c2nc3ncccc3o2)C1)N1CCN(Cc2ccccc2)CC1 (stereo not drawn)
Compound concentration: 200 nM
  TEAD-luciferase reporter activity: inactive: -2.02
Compound concentration: 10 uM
  TEAD-luciferase reporter activity: active: 5.51

## O=C(Nc1ccc(N2CCOCC2)cc1)c1ccccc1Nc1ccc(F)cc1
Compound concentration: 200 nM
  TEAD-luciferase reporter activity: inactive: -0.735
Compound concentration: 2 uM
  TEAD-luciferase reporter activity: inactive: -0.504
Compound concentration: 10 uM
  TEAD-luciferase reporter activity: inactive: 4.06

## CCOC(=O)Nc1cc2c(cn1)[nH]c1ccccc12
Compound concentration: 200 nM
  TEAD-luciferase reporter activity: inactive: -0.615
Compound concentration: 2 uM
  TEAD-luciferase reporter activity: inactive: 0.807
Compound concentration: 10 uM
  TEAD-luciferase reporter activity: inactive: 1.01

## Cn1c(=O)c2c(ncn2CC(O)CO)n(C)c1=O (stereo not drawn) [diprophylline, Elan]
Compound concentration: 200 nM
  TEAD-luciferase reporter activity: inactive: -0.856
Compound concentration: 10 uM
  TEAD-luciferase reporter activity: inactive: 3.94

## Cn1c(=O)c2c(ncn2CC(O)CO)n(C)c1=O (stereo not drawn) [diprophylline]
Compound concentration: 2 uM
  TEAD-luciferase reporter activity: inactive: -1.03

## O=C(Nc1ccccc1)N(CC1=CC(Cc2ccccc2)(NC(=O)C(Cl)(Cl)Cl)CC1)c1cccc(OCCN2CCOCC2)c1 (stereo not drawn)
Compound concentration: 200 nM
  TEAD-luciferase reporter activity: inactive: 1.79
Compound concentration: 2 uM
  TEAD-luciferase reporter activity: inactive: -0.512
Compound concentration: 10 uM
  TEAD-luciferase reporter activity: inactive: 1.02

## O=C(NCCS(=O)(=O)O)c1cccs1 [Taurosteine]
Compound concentration: 200 nM
  TEAD-luciferase reporter activity: inactive: -0.723
Compound concentration: 2 uM
  TEAD-luciferase reporter activity: inactive: 0.455
Compound concentration: 10 uM
  TEAD-luciferase reporter activity: inactive: 0.185

## Fc1ccc(C(c2ccccc2)(c2ccccc2F)n2ccnc2)cc1 (stereo not drawn) [flutrimazole]
Compound concentration: 200 nM
  TEAD-luciferase reporter activity: inactive: -1.49
Compound concentration: 2 uM
  TEAD-luciferase reporter activity: inactive: -0.73
Compound concentration: 10 uM
  TEAD-luciferase reporter activity: inactive: 4.32

## C[C@@H]1Cc2c([nH]c3ccccc23)[C@@H](c2c(F)cc(/C=C/C(=O)O)cc2F)N1CC(C)(C)F
Compound concentration: 200 nM
  TEAD-luciferase reporter activity: inactive: 1.62
Compound concentration: 2 uM
  TEAD-luciferase reporter activity: inactive: -0.939
Compound concentration: 10 uM
  TEAD-luciferase reporter activity: active: 6.45

## CCCc1c(OCCCOc2cc(O)c(-c3ccc(F)cc3)cc2CC)cccc1Oc1ccccc1C(=O)O
Compound concentration: 200 nM
  TEAD-luciferase reporter activity: inactive: -0.489
Compound concentration: 2 uM
  TEAD-luciferase reporter activity: inactive: -2.05
Compound concentration: 10 uM
  TEAD-luciferase reporter activity: inactive: -0.55
